Test results taken from publication PMC8482512.
No constants are given. Whether binding was seen depends on the method and setting. Binding seen in cells or lysates may run through a third protein. Binding can be weak; no strength is given. Where a sequence is shown, tags or fusion partners need not be part of it.

The chains behind the UniProt entries cited, without tags or fusion partners. Where a name states a change or a piece, a line headed by the entry shows the natural chain unless it says otherwise.
UniProt Q04689: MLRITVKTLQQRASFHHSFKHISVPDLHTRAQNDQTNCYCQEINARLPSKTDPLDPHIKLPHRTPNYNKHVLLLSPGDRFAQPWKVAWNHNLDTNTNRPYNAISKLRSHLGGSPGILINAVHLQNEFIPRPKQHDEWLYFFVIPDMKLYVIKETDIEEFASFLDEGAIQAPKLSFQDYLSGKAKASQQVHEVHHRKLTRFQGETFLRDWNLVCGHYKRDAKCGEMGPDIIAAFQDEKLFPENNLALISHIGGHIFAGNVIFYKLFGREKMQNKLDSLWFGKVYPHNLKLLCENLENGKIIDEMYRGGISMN

What was measured:
Test in all cases: pull-down; mitochondria of His-tagged strains solubilized in 1% digitonin, 500 μg lysate incubated with Ni2+-agarose beads, washed, eluted, immunoblot; untagged WT strain as control
[1] = target: T1, His-tagged Tim17 (S. cerevisiae) (UniProt P39515)
T1 sequence: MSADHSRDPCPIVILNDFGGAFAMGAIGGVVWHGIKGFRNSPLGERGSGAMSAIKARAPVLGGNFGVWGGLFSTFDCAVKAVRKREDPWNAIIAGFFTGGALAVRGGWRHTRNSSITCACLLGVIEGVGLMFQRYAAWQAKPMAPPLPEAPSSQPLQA

[2] = target: T2, His-tagged Tim23 (S. cerevisiae) (UniProt P32897)
T2 sequence: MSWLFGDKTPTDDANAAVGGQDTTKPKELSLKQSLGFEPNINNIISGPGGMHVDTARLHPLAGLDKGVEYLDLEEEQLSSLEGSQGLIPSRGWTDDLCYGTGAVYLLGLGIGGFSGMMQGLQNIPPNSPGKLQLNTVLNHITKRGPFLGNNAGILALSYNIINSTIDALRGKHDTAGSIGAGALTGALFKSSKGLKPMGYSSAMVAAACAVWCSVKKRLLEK

[3] = target: T3, Erv1 with a C-terminal histidine tag (Erv1-His) (S. cerevisiae) (UniProt P27882)
T3 sequence: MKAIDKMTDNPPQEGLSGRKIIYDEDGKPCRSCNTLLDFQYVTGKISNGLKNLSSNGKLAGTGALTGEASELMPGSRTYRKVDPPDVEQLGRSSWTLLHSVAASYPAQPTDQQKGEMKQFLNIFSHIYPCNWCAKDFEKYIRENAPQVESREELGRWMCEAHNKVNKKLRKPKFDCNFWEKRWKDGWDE

Substance	binding [1]	binding [2]	binding [3]
Altered inheritance of mitochondria 32 (Aim32) (from UniProt Q04689)	binds	binds	–
cytochrome c	–	–	binds
